No constants are given. Whether binding was seen depends on the method and setting. Binding seen in cells or lysates may run through a third protein. Binding calls can cover weak binding; strength is not graded here.

Sequences of proteins named here, by UniProt entry; tags and fusion partners are left off. A change or cut given only in a name is not applied to a line headed by its entry.
UniProt P70452: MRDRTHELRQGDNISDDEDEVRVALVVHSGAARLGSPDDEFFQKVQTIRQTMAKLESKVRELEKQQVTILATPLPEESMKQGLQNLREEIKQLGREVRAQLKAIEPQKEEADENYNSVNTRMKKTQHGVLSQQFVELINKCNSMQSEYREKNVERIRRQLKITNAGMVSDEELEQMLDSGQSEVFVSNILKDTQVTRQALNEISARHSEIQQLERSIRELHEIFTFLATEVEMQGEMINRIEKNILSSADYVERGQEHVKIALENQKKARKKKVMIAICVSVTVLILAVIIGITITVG

The values that follow come from article PMC4561423.

The target of this test is GFP-S-tagged Stx4Δ33-153 (Syntaxin domain deletion) (mouse) (UniProt P70452). Briefly: pull-down; 293T cells co-transfected with Cdo and GFP-S-tagged Stx4 (full length or deletion mutants); cell extracts incubated with anti-S (S-agarose) beads; blot with Cdo or GFP antibodies.

B1: Cdo (cell adhesion molecule-related, down-regulated by oncogenes), full length, expressed in 293T cells (receptor, UniProt O35158 25-1256)
chain: DLATYFISEPLSAVQKLGRPVVLHCSAKPVTARISWLHNGKRLDRNTEQIKIHRGTLTILSLNPSLSGCYQCVANNSVGAVVSGPATVSADALADFDSSTMHVITAEKKNTGFIGCRVPESNPKAEVRYKIRGKWLMYSTGNYIILPSGNLQILNVSSKDKGSYKCAAYNPVTSELKVEPAGRKLLVSRPSSDGFHILHPALSQALAVLPHSPVTLECVVSGVPASQVYWLKDGQDCLSGSNWRRLYSHLATASIDPADSGNYSCVVGNNSSGDVKHVTYTVNVLEHASISKGLHDQKVSLGATVRFTCEVHGNPAPNRTWFHNAQPIRPSSRHLTEGSVLKITGVIMEDSGLYQCMADNGIGFMQSTGRLQIEQDSGQRPVIVTAPANVEVTDGDFVTLSCNATGEPVPVIHWYGRHGLITSHPSQVLRSKSRKSHLFRPGDLDPEPVYLIMSQAGSSSLSIQAVTREHAGKYTCEAVNKHGSTQSEAFLTVVPFETNTKAEPVTPSEASQNDERDPRDGSESGLLNLFPVKVHSGGVELPAEKNASVPDAPNILSPPQTHMPDTYTLVWRTGRDGGMPINAYFVKYRKLDDGSGAVGSWHTVRVPGSESELHLTELEPSSLYEVLMVARSAVGEGQPAMLTFRTSKEKMASSKNTQASFPPVGIPKRPVTSEASNSNFGVVLTDSSRHSGVPEAPDRPTISMASETSVYVTWIPRANGGSPITAFKVEYKRMKSSDWLVAAEDIPPSKLSVEVRSLEPGSIYKFRVIVINHYGESFRSSASRPYQVAGFPNRFSNRPITGPHIAYTEAVSDTQIMLKWTYIPSSNNNTPIQGFYIYYRPTDSDNDSDYKRDVVEGSKQWHTIGHLQPETSYDIKMQCFNEGGESEFSNVMICETKVKRVPGASEYPMKELSTPPSSSGNGGNVGPATSPARSSDMLYLIVGCVLGVMVLILLVFIALCLWKSRQQSAIQKYDPPGYLYQGSEINGQMVEYTTLSGTARINGSVHGGFLSKGSLSNGCSHLHHKGPNGVNGILNGTINGGLYSAHTSSLTRTCVEFEHPHHLVNGGAVYTAVPQMDPLECINCRNCRNNNRCFTKTNSPLPVVPVVASYPQDGLEMKPLGVMKFPVCPVSTVPDGGQIPEECLKDSVAPAPTQRTCRQDNTSDINSDSTEDTAEFNRGDSSGHSEAEDKVFSWSPLILSPVLEDCSEKTAWSPPGPPLDGLSVVLQQAQET
On to B1, for which the binding entry was “binds”.
